Measured values published in EP1270000A2, “Benzoic acid substituted benzopyrans for the treatment of atherosclerosis” (Pfizer Products Inc., priority 2001, dated 2003).

Test: Plasma lipids (total plasma cholesterol and triglycerides)
Format: in vivo, mice
[1] = 129E^-/-, F, 15 wks, 30 mg/kg orally 35 days, chow diet
[2] = 129E^-/-, F, 15 wks, 50 mg/kg orally 35 days, chow diet
[3] = 129E^-/-, F, 15 wks, 100 mg/kg orally 35 days, chow diet
[4] = 129E^-/-, F, 20 wks, 30 mg/kg orally 35 days, chow diet
[5] = 129E^-/-, F, 24 wks, 100 mg/kg orally 35 days, chow diet
[6] = C57E^-/-, F, 22 wks, 100 mg/kg orally 35 days, chow diet
[7] = C57E^-/-, M, 16 wks, 100 mg/kg orally 35 days, chow diet
[8] = LDLr^-/-, M, 18 wks, 30 mg/kg orally 35 days, Western diet
[9] = MCP-1 ^-/- X ApoE^-/-, M, 15 wks, 30 mg/kg orally 35 days
[10] = MCP-1 ^-/- X ApoE^-/-, M, 15 wks, 100 mg/kg orally 35 days
[11] = MCP-1 ^-/- X ApoE^-/-, M, 30 wks, 100 mg/kg orally 35 days

## O=C(O)c1ccc(C(F)(F)F)cc1-c1ccc2c(c1)OC[C@H](Cc1ccccc1)[C@H]2O [(3S, 4R)-7-(2-carboxy-5-trifluoromethylphenyl)-4-hydroxy-3-benzyl-3,4-dihydro-2H-1-benzopyran]
[1]
  TG: 83 ± 40 mg/dL
  TPC: 584 ± 58 mg/dL
[2]
  TG: 59 ± 17 mg/dL
  TPC: 675 ± 181 mg/dL
[3]
  TG: 36 ± 13 mg/dL
  TPC: 858 ± 166 mg/dL
[4]
  TG: 138 ± 21 mg/dL
  TPC: 780 ± 51 mg/dL
[5]
  TG: 102 ± 9 mg/dL
  TPC: 579 ± 37 mg/dL
[6]
  TG: 116 ± 6 mg/dL
  TPC: 640 ± 41 mg/dL
[7]
  TG: 169 ± 57 mg/dL
  TPC: 801 ± 71 mg/dL
[8]
  TG: 532 ± 205 mg/dL
  TPC: 798 ± 300 mg/dL
[9]
  TG: 82 ± 12 mg/dL
  TPC: 345 ± 15 mg/dL
[10]
  TG: 79 ± 15 mg/dL
  TPC: 354 ± 20 mg/dL
MCP-1 ^-/- X ApoE^-/-, M, 30 wks, 30 mg/kg orally 35 days
  TPC: 565 ± 22 mg/dL
[11]
  TG: 47 ± 2 mg/dL
  TPC: 576 ± 21 mg/dL
